Some entries share one result that the patent states for a list of compounds.
Legend:
two-spotted spider mites [1] = type: in vivo; conditions: 200 ppm, 2 ml sprayed; 6 days after the spraying
two-spotted spider mites [2] = type: in vivo; conditions: 200 ppm sprayed onto kidney bean leaves; after 2 days
Text: A piece of non-woven fabric (4.5×5.5 cm) was suspended inside a plastic cup through an incision made in the lid of the plastic cup. After water was poured into the cup, the cup was covered with the lid. A kidney bean leaf (about 3.5×4.5 cm) was then placed on the sufficiently soaked, non-woven fabric. Another kidney bean leaf with two-spotted spider mites (about 30 mite samples) was placed on top of the first leaf, and the fabric and leaves were placed in a thermostatic chamber having a temperature of 25±2° C. and a humidity of 40%.
Miticidal formulations containing the compound of the invention (200 ppm) were prepared by adding an aqueous solution (100 ppm) of Sorpol 355 (manufactured by Toho Kagaku Co., Ltd.) to a methanol solution of the compound of the invention.
These miticidal formulations were sprayed onto the leaves, and the leaves were air-dried and placed in a thermostatic chamber (25±2° C., humidity 50%). The mortality rate of the two-spotted spider mites was calculated after 2 days.

| Structure (SMILES) | ovicidal rate of the two-spotted spider mites (printed as mortality rate) (two-spotted spider mites [1]) [%] | mortality rate of the two-spotted spider mites (two-spotted spider mites [2]) [%] |
| --- | --- | --- |
| CC(C)OC(=O)C(C#N)(C(=O)c1ccccc1C(F)(F)F)c1ccc(C(C)(C)C)cc1 (racemic) [Compound No. 3] | ≥ 50 | ≥ 50 |
| CC(C)(C)OC(=O)C(C#N)(C(=O)c1ccccc1C(F)(F)F)c1ccc(C(C)(C)C)cc1 (racemic) [compound 4] | ≥ 50 | ≥ 50 |
| CCCCCCOC(=O)C(C#N)(C(=O)c1ccccc1C(F)(F)F)c1ccc(C(C)(C)C)cc1 (racemic) [compound 5] | ≥ 50 | ≥ 50 |
| CC(C)(C)c1ccc(C(C#N)(C(=O)OCc2ccccc2)C(=O)c2ccccc2C(F)(F)F)cc1 (racemic) [compound 6] | ≥ 50 | ≥ 50 |
| C=CCOC(=O)C(C#N)(C(=O)c1ccccc1C(F)(F)F)c1ccc(C(C)(C)C)cc1 (racemic) [compound 7] | ≥ 50 | ≥ 50 |
| C#CCOC(=O)C(C#N)(C(=O)c1ccccc1C(F)(F)F)c1ccc(C(C)(C)C)cc1 (racemic) [compound 8] | ≥ 50 | ≥ 50 |
| CC(C)(C)c1ccc(C(C#N)(C(=O)OCC(F)(F)F)C(=O)c2ccccc2C(F)(F)F)cc1 (racemic) [compound 9] | ≥ 50 | ≥ 50 |
| CCOCCOC(=O)C(C#N)(C(=O)c1ccccc1C(F)(F)F)c1ccc(C(C)(C)C)cc1 (racemic) [compound 11] | ≥ 50 | ≥ 50 |
| CCCOCCOC(=O)C(C#N)(C(=O)c1ccccc1C(F)(F)F)c1ccc(C(C)(C)C)cc1 (racemic) [compound 12] | ≥ 50 | ≥ 50 |
| CC(C)OCCOC(=O)C(C#N)(C(=O)c1ccccc1C(F)(F)F)c1ccc(C(C)(C)C)cc1 (racemic) [compound 13] | ≥ 50 | ≥ 50 |
| CCCCOCCOC(=O)C(C#N)(C(=O)c1ccccc1C(F)(F)F)c1ccc(C(C)(C)C)cc1 (racemic) [compound 14] | ≥ 50 | ≥ 50 |
| CC(C)(C)OCCOC(=O)C(C#N)(C(=O)c1ccccc1C(F)(F)F)c1ccc(C(C)(C)C)cc1 (racemic) [compound 15] | ≥ 50 | ≥ 50 |
| CSCCOC(=O)C(C#N)(C(=O)c1ccccc1C(F)(F)F)c1ccc(C(C)(C)C)cc1 (racemic) [compound 16] | ≥ 50 | ≥ 50 |
| CSC(=O)C(C#N)(C(=O)c1ccccc1C(F)(F)F)c1ccc(C(C)(C)C)cc1 (racemic) [compound 17] | ≥ 50 | ≥ 50 |
| CCSC(=O)C(C#N)(C(=O)c1ccccc1C(F)(F)F)c1ccc(C(C)(C)C)cc1 (racemic) [compound 18] | ≥ 50 | ≥ 50 |
| CCCSC(=O)C(C#N)(C(=O)c1ccccc1C(F)(F)F)c1ccc(C(C)(C)C)cc1 (racemic) [compound 19] | ≥ 50 | ≥ 50 |

| Structure (SMILES) | ovicidal rate of the two-spotted spider mites (printed as mortality rate) (two-spotted spider mites [1]) [%] | mortality rate of the two-spotted spider mites (two-spotted spider mites [2]) [%] |
| --- | --- | --- |
| CC(C)SC(=O)C(C#N)(C(=O)c1ccccc1C(F)(F)F)c1ccc(C(C)(C)C)cc1 (racemic) [compound 20] | ≥ 50 | ≥ 50 |
| CCCCSC(=O)C(C#N)(C(=O)c1ccccc1C(F)(F)F)c1ccc(C(C)(C)C)cc1 (racemic) [compound 21] | ≥ 50 | ≥ 50 |
| CCCCCCSC(=O)C(C#N)(C(=O)c1ccccc1C(F)(F)F)c1ccc(C(C)(C)C)cc1 (racemic) [compound 22] | ≥ 50 | ≥ 50 |
| CCOC(=O)C(C#N)(C(=O)c1ccccc1C(F)(F)F)c1ccc(Cl)cc1 (racemic) [compound 25] | ≥ 50 | ≥ 50 |
| CCCOC(=O)C(C#N)(C(=O)c1ccccc1C(F)(F)F)c1ccc(Cl)cc1 (racemic) [compound 31] | ≥ 50 | ≥ 50 |
| CC(C)OC(=O)C(C#N)(C(=O)c1ccccc1C(F)(F)F)c1ccc(Cl)cc1 (racemic) [compound 32] | ≥ 50 | ≥ 50 |
| CCCCOC(=O)C(C#N)(C(=O)c1ccccc1C(F)(F)F)c1ccc(Cl)cc1 (racemic) [compound 33] | ≥ 50 | ≥ 50 |
| CC(C)COC(=O)C(C#N)(C(=O)c1ccccc1C(F)(F)F)c1ccc(Cl)cc1 (racemic) [compound 35] | ≥ 50 | ≥ 50 |
| CCOC(=O)C(C#N)(C(=O)c1ccc(F)cc1C(F)(F)F)c1ccc(C(C)(C)C)cc1 (racemic) [compound 36] | ≥ 50 | ≥ 50 |
| CCOC(=O)C(C#N)(C(=O)c1c(F)cccc1C(F)(F)F)c1ccc(C(C)(C)C)cc1 (racemic) [compound 38] | ≥ 50 | ≥ 50 |
| COC(=O)C(C#N)(C(=O)c1ccccc1C(F)(F)F)c1ccc(Cl)cc1 (centres unmarked) [Compound No. 30, Methyl 2-(4-Chlorophenyl)-2-(2-Trifluoromethylbenzoyl)Cyanoacetate] | ≥ 50 |  |
| CCOC(=O)C(C#N)(C(=O)c1ccccc1C(F)(F)F)c1ccc(F)cc1 (centres unmarked) [compound 44] | ≥ 50 | ≥ 50 |
| CCOC(=O)C(C#N)(C(=O)c1ccccc1C(F)(F)F)c1ccc(Br)cc1 (centres unmarked) [compound 45] | ≥ 50 | ≥ 50 |
| CCOC(=O)C(C#N)(C(=O)c1ccccc1C(F)(F)F)c1ccc(C(F)(F)F)cc1 (centres unmarked) [compound 47] |  | ≥ 50 |
| CCOC(=O)C(C#N)(C(=O)c1ccccc1C(F)(F)F)c1ccc(C(C)C)cc1 (centres unmarked) [compound 48] | ≥ 50 | ≥ 50 |
| CCOC(=O)C(C#N)(C(=O)c1ccccc1C(F)(F)F)c1ccc(CC(C)C)cc1 (centres unmarked) [compound 49] | ≥ 50 | ≥ 50 |
